# According to patent publication US5438135A, “Water-soluble tetraazaporphins and fluorochrome for labeling” (Hitachi Chemical Company, priority 1991, dated 1995):
# Tested on: DNA having a known base sequence
# Assay: Analysis of the base sequence of DNA (Sanger reaction with labeled primers, DNA sequencer equipped with a semiconductor laser)
# Procedure: A DNA having a known base sequence was used as a sample. Sanger reaction was carried out for the 4 kinds of bases using each of the labeled primers synthesized in Examples 19 to 25 or primers having a tetraazaporphin attached thereto through a linker synthesized in the same manner as in Examples 19 to 25. The DNA fragments thus obtained were separated by electrophoresis in different lanes for the 4 reaction systems, respectively, and analyzed by means of a DNA sequencer equipped with a semiconductor laser. The reaction systems contained a nonionic surfactant as an addition if necessary.
# Each of the phthalocyanines disclosed in International Application Number PCT/US89/03807 was attached to the oligonucleotide primer obtained in Example 18, according to the methods of grafted patents and the methods described in Examples 19 to 25 of this invention. Using each of the phthalocyanine-attached oligonucleotides thus obtained, the base sequence of DNA was analyzed in the same manner as in Example 26.
# [1] = Triton X-100, semiconductor laser 780 nm
# [2] = no nonionic surfactant (--), semiconductor laser 770 nm
# [3] = Triton X-100, semiconductor laser 770 nm
substance,measurement,setting,value
bis(tributylsiloxy)silicon-tetraphenylthioquinoxalocyanineoctacarboxylic acid monohydroxypropyl ester heptasodium salt [Example 13],Number of bases of DNA,[1],340
same,Precision,[1],99.4%
sodium bis(tributylsiloxy)silicon-tetraphenylthionaphthalocyanine octacarboxylate [Illustrative compound No. 1],Number of bases of DNA,[1],380
same,Precision,[1],99.7%
sodium bis(tripropylsiloxy)silicon-tetraethylthionaphthalocyaninetetracarboxylate [Illustrative compound No. 16],Number of bases of DNA,[2],330
same,Precision,[2],99.7%
sodium zinc-naphthalocyaninetetracarboxylate [Illustrative compound No. 126],Number of bases of DNA,[3],350
same,Precision,[3],99.7%
